This is one part of the list. The main result of the screen is listed elsewhere. These columns were measured beside it and carry no call.

This experiment in a line: cytotoxicity in HepG2 cells, dose response, cytotoxicity control, cell-based, plate reader, cherry-pick, two tests (AID 651898). The conditions noted are these: measured here: replicate test 2 max activity; at 6 µM unless noted.
Take `O=C(C[C@@H]1C[C@H]2c3cc(NC(=O)c4cccnc4)ccc3O[C@H]2[C@@H](CO)O1)NCc1cc(F)ccc1F`: the max activity is -8.47% [at 23.5 µM].

As to `CN1c2ccc(-c3cccc(F)c3)cc2[C@H]2[C@H](CCN2C(=O)c2ccc3c(c2)OCO3)[C@H]1CO`, the max activity is -11% [at 0.38 µM].

For `CCNC(=O)C[C@H]1CC[C@@H]2[C@@H](COc3ccc(NC(=O)Nc4cccc(F)c4)cc3C(=O)N2C)O1`, the max activity is -10.2% [at 26 µM].

As for `COC(=O)C[C@H]1CC[C@@H]2[C@H](COC[C@@H](O)CN2C(=O)Nc2cccc(F)c2)O1`, the max activity was -10.3%.

Regarding `O=C(C[C@@H]1C[C@@H]2c3cc(NC(=O)c4cccnc4)ccc3O[C@@H]2[C@@H](CO)O1)NCc1cccnc1`, the max activity was -15% [at 1.6 µM].

As to `O=C(Cc1ccccc1)N1CC[C@@H]2[C@H]1c1cc(Br)ccc1N[C@@H]2CO`, the max activity is -7.53% [at 1.6 µM].

For the molecule `O=C(Nc1nccs1)[C@H]1[C@H](CO)[C@H]2Cn3c(ccc(-c4cccnc4)c3=O)[C@H]2N1CC1CCCC1`, the max activity turned out to be 9.03% [at 26 µM].

As to `CN1c2ccc(-c3cccc(F)c3)cc2[C@H]2[C@H](CCN2C(=O)c2ccncc2)[C@@H]1CO`, the max activity was -3.95% [at 1.6 µM].

For `O=C(N[C@@H]1CC[C@H](CCn2cc(-c3cccnc3)nn2)O[C@@H]1CO)c1ccccc1F`, the max activity is -8.82% [at 3 µM].

For `CN1c2ccc(-c3cccc(C#N)c3)cc2[C@H]2[C@H](CCN2C(=O)CC2CC2)[C@H]1CO`, the max activity was 18.4% [at 23.5 µM].

In the case of `Cc1ccccc1S(=O)(=O)NCC[C@H]1CC[C@@H](NC(=O)Nc2cccc(F)c2)[C@H](CO)O1`, the max activity was -9.11% [at 3 µM].

As to `C/C=C/c1ccc2c(c1)O[C@@H](CN(C)C(=O)Nc1ccc(OC)cc1)[C@@H](C)CN([C@@H](C)CO)S2(=O)=O`, the max activity stood at 15.4%.

As to `N#C[C@H]1[C@@H](c2ccccc2)[C@@H](CO)N1C(=O)Nc1cccc(F)c1`, the max activity amounted to 14.7% [at 12 µM].

On to `CN1c2ccc(-c3cccc(F)c3)cc2[C@H]2[C@H](CCN2C(=O)c2ccncc2)[C@H]1CO`, for which the max activity is 12.3% [at 0.195 µM].

Consider `CN1c2ccc(-c3cccc(F)c3)cc2[C@@H]2[C@@H](CCN2C(=O)c2ccncc2)[C@H]1CO`, for which the max activity was -8.13%.

As to `O=C(c1ccc2c(c1)OCO2)N1CC[C@@H]2[C@H](CO)Nc3ccc(-c4ccc(F)cc4)cc3[C@@H]21`, the max activity was -13.9%.

Regarding `COCCNC(=O)C[C@@H]1CC[C@@H]2[C@H](COc3ccc(NC(=O)Nc4cccc(F)c4)cc3C(=O)N2C)O1`, the max activity is 13%.

For the molecule `O=C(C[C@@H]1C[C@@H]2c3cc(NC(=O)c4cccnc4)ccc3O[C@@H]2[C@@H](CO)O1)NCCc1ccccc1`, the max activity was -15%.

On to `O=C(c1ccncc1)N1CC[C@@H]2[C@@H](CO)Nc3ccc(Br)cc3[C@@H]21`, for which the max activity came out at 5.55% [at 0.8 µM].

Regarding `CC(C)(C)[S@](=O)N1Cc2cc(C(=O)NCc3ccccc3F)nc(-c3cccc(-c4cccnc4)c3)c2[C@@H]1CCO`, the max activity is -7.97% [at 0.35 µM].

In the case of `O=C(C1CCOCC1)N1CC[C@@H]2[C@H]1c1cc(Br)ccc1N[C@@H]2CO`, the max activity is -6.84% [at 3 µM].

With `COC(=O)C[C@@H]1CC[C@@H]2[C@H](COC[C@@H](O)CN2C(=O)Nc2cccc(F)c2)O1`, the max activity is -6.07% [at 0.8 µM].

For `COc1ccccc1S(=O)(=O)N1CC[C@@H]2[C@H](CO)Nc3ccc(-c4cccc(C#N)c4)cc3[C@@H]21`, the max activity was 13.8% [at 0.8 µM].

Take `CC(=O)N1CC[C@@H]2[C@@H](CO)N(C)c3ccc(-c4ccccc4)cc3[C@@H]21`: the max activity is 20.8% [at 26 µM].

On to `O=C(N[C@H]1CC[C@@H](CCn2cc(-c3cccnc3)nn2)O[C@H]1CO)c1ccccc1F`, for which the max activity was -6.22% [at 26 µM].

With `O=C(c1ccccc1F)N1CC[C@@H]2[C@H]1c1cc(Br)ccc1N[C@@H]2CO`, the max activity is -7.36% [at 1.6 µM].

For the molecule `COCC(=O)N1CC[C@@H]2[C@@H](CO)N(C)c3ccc(-c4ccc(F)cc4)cc3[C@@H]21`, the max activity was 11.1% [at 0.195 µM].

For `O=C(c1ccncc1)N1CC[C@H]2[C@H](CO)Nc3ccc(Br)cc3[C@H]21`, the max activity was -17.3% [at 1.5 µM].

Regarding `C[C@H](CO)N1C[C@H](C)[C@@H](CN(C)Cc2ccc3c(c2)OCO3)Oc2ccc(NC(=O)Cn3cnnn3)cc2CC1=O`, the max activity is -14.3%.

On to `COc1ccc(-c2ccc3c(c2)[C@H]2[C@H](CCN2C(=O)Cc2cccnc2)[C@H](CO)N3C)cc1`, for which the max activity worked out at 9.68% [at 12 µM].

`COC(=O)C[C@@H]1C[C@@H]2c3cc(NC(=O)c4cccnc4)ccc3O[C@@H]2[C@@H](CO)O1`: the max activity is -5.15%.

Turning to `O=C(Cc1ccccc1)N1CC[C@@H]2[C@H](CO)Nc3ccc(Br)cc3[C@@H]21`, the max activity amounted to 15.2% [at 26 µM].

Take `O=C(c1ccncc1)N1CC[C@@H]2[C@H](CO)Nc3ccc(Br)cc3[C@@H]21`: the max activity is 9.17% [at 0.195 µM].

For `COc1ccccc1S(=O)(=O)N1CC[C@@H]2[C@H](CO)Nc3ccc(-c4ccccc4)cc3[C@@H]21`, the max activity is -6.95% [at 23.5 µM].

For the molecule `O=C(Nc1ccc2c(c1)[C@H]1C[C@@H](CC(=O)N3CCc4ccccc4C3)O[C@@H](CO)[C@H]1O2)c1cccnc1`, the max activity was -7.45% [at 0.38 µM].

Turning to `O=C(c1cccc(F)c1)N1CC[C@@H]2[C@H]1c1cc(-c3cccc(F)c3)ccc1N[C@@H]2CO`, the max activity is -13.9% [at 0.75 µM].

As to `COCCNC(=O)C[C@@H]1CC[C@@H]2[C@@H](COc3ccc(NC(=O)Nc4cccc(F)c4)cc3C(=O)N2C)O1`, the max activity is 16.9% [at 0.195 µM].

In the case of `CO[C@H]1CN(C)C(=O)c2ccc(NC(C)=O)cc2OC[C@@H](C)N(C(=O)C2CCCCC2)C[C@H]1C`, the max activity is -14.2% [at 0.195 µM].

For `CC(=O)N1[C@@H]2c3ccc(-c4cccnc4)c(=O)n3C[C@@H]2[C@@H](CO)[C@@H]1C(=O)NCc1ccccc1Cl`, the max activity was found to be 6.21% [at 1.6 µM].

Regarding `N#Cc1ccc(-c2ccc3c(c2)[C@@H]2[C@@H](CCN2C(=O)c2ccc(F)cc2)[C@@H](CO)N3)cc1`, the max activity was -6.17% [at 26 µM].

For the origin of these results see PubChem BioAssay AID651898 (Broad Institute, 2012).
